Some of the results follow. Shown are side measurements of this screen, not its main read-out; they come without a call. Most of these compounds were active or inconclusive in the main read-out, so they are no random draw. Potencies come from curve fits of mixed quality, noted in brackets.
Assay: qHTS Assay for Modulators of Lamin A Splicing
Conditions: HeLa LMNA splicing GFP/RFP minigene ratio, 48 h
Outline: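 S3 HeLa stable clones carrying a lamin A-EGFP splicing minigene plus DsRed2 were seeded at 600 cells/well in Opti-MEM with 2% FBS, pin-dosed and incubated 48 h at 37°C. Acumen cytometry (488 nm) gave the GFP/RFP total-intensity ratio.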

[1] = measured here: GFP splicing reporter channel
[2] = measured here: RFP viability control channel

Compound	AC50 [1]	AC50 [2]
c1ccc(-c2csc3ncnc(NCCN4CCOCC4)c23)cc1	20 µM [rising, single point]	31.6 µM [rising, single point]
CCC(C)(C)n1nnnc1CN1CCN(c2ccc(OC)cc2)CC1	–	1.58 µM [falling, full curve, poor fit]
O=C(NC1CC1)c1cccc(Nc2ccc(-c3ccc4c(c3)OCCO4)nn2)c1	–	20 µM [rising, single point]
O=C(NC12CC3CC(CC(C3)C1)C2)c1ccc(-c2ccc(Br)cc2)o1	–	28.2 µM [rising, single point]
Cc1ccc(CN(Cc2ccco2)C(=S)Nc2ccccc2C)cc1	0.0631 µM [falling, full curve, poor fit]	–
OC(CN1CCN(c2ccccn2)CC1)Cn1c2ccc(Cl)cc2c2cc(Cl)ccc21 (stereo unspecified)	35.5 µM [falling, single point]	35.5 µM [falling, single point]
Cc1cc(N=Cc2c(O)ccc3cc(Br)ccc23)no1	17.8 µM [rising, single point]	31.6 µM [rising, single point]
COC(=O)CN1C(=S)N(c2ccc(Cl)cc2)C(=O)C1CC(=O)Nc1ccc(Cl)cc1 (stereo unspecified)	–	5.62 µM [rising, partial curve]
COc1ccc(/C=N/Nc2ncnc3sc(C)c(C)c23)cc1	–	17.8 µM [rising, partial curve]
COc1ccc(/C=C/C(=O)c2ccc(OC)cc2O)cc1	–	12.6 µM [rising, partial curve]
C=CCc1cccc(C2Nc3ccccc3C(=O)N2O)c1O (stereo unspecified)	35.5 µM [falling, single point]	–
COC(=O)[C@@H]1C[C@H]1[C@@H](NS(=O)(=O)c1ccccc1)c1ccccc1	–	10 µM [rising, partial curve]
Cc1nc([N+](=O)[O-])c(Br)n1CC(=O)c1ccc2ccccc2c1	25.1 µM [falling, single point]	35.5 µM [falling, partial curve]
Cn1c(=O)c(C(=O)CSc2ccccc2)c(N)n(Cc2ccccc2)c1=O	22.4 µM [falling, partial curve, poor fit]	35.5 µM [falling, single point]
COc1ccc(CCNc2cc(C)nc3c(-c4ccc(Cl)cc4)cnn23)cc1OC	–	35.5 µM [rising, single point]
COc1cccc(C2=C(C(C)=O)Sc3nncn3N2C(C)=O)c1	39.8 µM [falling, partial curve, poor fit]	–
O=C1C=C(Nc2ccccc2O)c2ccccc2C1=O	35.5 µM [falling, single point]	35.5 µM [falling, single point]
COc1ccccc1CNc1nc(-c2ccccc2OC)nc2ccccc12	11.2 µM [falling, partial curve]	15.8 µM [falling, partial curve]
CCN(CC)S(=O)(=O)c1ccc(NC(=O)CSc2ncnc3ccccc23)cc1	–	11.2 µM [rising, partial curve, poor fit]
CCCCc1c(C)c(C#N)c2[nH]c3ccccc3n2c1=O	–	14.1 µM [rising, partial curve]
Oc1ccc(CNc2ccc(F)cc2)c2cccnc12	–	31.6 µM [rising, single point]
CC(=O)Nc1ccc(NC(=O)c2ccc(NS(=O)(=O)c3cc(C(C)(C)C)cc(C)c3C)cc2)cc1	8.91 µM [rising, partial curve]	12.6 µM [rising, single point]
COc1cccc(NC(=O)CSc2nc3ccc(NC(=O)c4cccs4)cc3s2)c1	0.112 µM [falling, full curve]	0.0112 µM [falling, full curve, poor fit]
Cc1ncc([N+](=O)[O-])n1CCO	1.41 µM [rising, partial curve, poor fit]	2.51 µM [rising, single point]
Cc1ccccc1N1CC(C(=O)Nc2nnc(SCC(=O)Nc3nccs3)s2)CC1=O (stereo unspecified)	15.8 µM [rising, partial curve, poor fit]	–
O=C(Nc1cccc(Br)c1)c1ccc2nc(N3C(=O)CCC3=O)sc2c1	12.6 µM [falling, single point]	35.5 µM [falling, single point]
COc1ccc(NC(=S)NCCc2ccc(Cl)cc2)c(OC)c1	31.6 µM [rising, single point]	35.5 µM [rising, single point]
COC(=O)C(C)(C)ONC(=O)Nc1ccccc1Br	4.47 µM [rising, full curve, poor fit]	–

Compound	AC50 [1]	AC50 [2]
O=C(NNC(=O)c1ccccc1Br)c1cccc(Cl)c1	31.6 µM [rising, single point]	–
Cc1ccc(NS(=O)(=O)c2ccc(Cl)c(C(=O)Nc3ccccc3-c3nc4ccccc4[nH]3)c2)cc1C	17.8 µM [rising, single point]	22.4 µM [rising, partial curve]
COc1cccc(-c2cc(C(=O)Nc3c(C)nn(Cc4ccccc4C)c3C)no2)c1	11.2 µM [rising, single point]	15.8 µM [rising, single point]
CCOC(=O)C1(Cc2ccccc2C(F)(F)F)CCN(C(=O)c2cc(C)n(C)n2)CC1	–	22.4 µM [falling, single point]
Nc1ccc(C(=O)N/N=C\C=C\c2ccc([N+](=O)[O-])cc2)cc1	22.4 µM [rising, partial curve, poor fit]	–
Cc1ccc(-n2ncc(C(=O)NCCN3CCCC3)c2C2CCN(C(=O)OC(C)(C)C)CC2)cc1C	35.5 µM [falling, single point]	–
CCOC(=O)c1c(CSC(=N)N)n(-c2ccc(Br)cc2)c2cc(Br)c(OC(C)=O)cc12	22.4 µM [falling, single point]	22.4 µM [falling, partial curve, poor fit]
CCn1cc(C(=O)O)c(=O)c2cc(F)c(N/N=C/c3ccccc3)cc21	–	12.6 µM [rising, partial curve]
COc1ccc(C(=O)Cc2ccc(OC)c(OC)c2)c(OC)c1	–	14.1 µM [rising, single point]
Cc1occc1C(=O)N/N=C/C(Br)=C/c1ccccc1	31.6 µM [falling, partial curve, poor fit]	–
CN(C)CCCNc1c2c(c(C#N)c3nc4ccccc4n13)CCC2	10 µM [rising, partial curve, poor fit]	12.6 µM [rising, single point]
COc1ccc(-c2n[nH]c(=S)n2/N=C/C=C/c2ccccc2OC)cc1	–	3.16 µM [rising, single point]
CCOC(=O)c1[nH]c2ccc(OC)cc2c1NC(=O)CCN1CCSCC1	10 µM [rising, single point]	8.91 µM [rising, partial curve]
Cc1ccc(-c2cn(-c3ccc(SC(F)F)cc3)c3[n+]2CCC3)cc1	–	5.01 µM [rising, full curve, poor fit]
CCOC(=O)N1CCN(C(=O)c2cc(COc3ccc4ncccc4c3)on2)CC1	1.41 µM [falling, full curve, poor fit]	1.26 µM [falling, full curve]
CCc1nnc(NC(=O)c2ccc(Cl)c(S(=O)(=O)N3CCc4ccccc4C3)c2)s1	–	3.55 µM [rising, partial curve]
Nc1ccc2c(c1)OC1(CCCCC1)O2	–	17.8 µM [falling, single point]
CC(C)c1ccc(Nc2ncnc3onc(-c4ccc(F)cc4)c23)cc1	–	35.5 µM [rising, single point]
COc1ccc(NC(=O)c2cc3c(=O)n(C)c4ccccc4c3n2C)cc1OC	–	22.4 µM [rising, single point]
O=C(/C=C/c1ccco1)Nc1nc(-c2ccccc2)cs1	11.2 µM [rising, partial curve]	12.6 µM [rising, partial curve]
CCc1nnc(NC(=O)CSc2nc(-c3ccccc3)cc(-c3ccc(F)cc3)c2C#N)s1	3.55 µM [falling, full curve]	3.98 µM [falling, full curve]
CSCC[C@H](NC(=O)OC(C)(C)C)c1nnc(SCc2ccc(F)cc2)o1	–	25.1 µM [rising, single point]
Cc1c(C(=O)N2CCOCC2)[nH]c2ccc(OCc3ccccc3)cc12	–	31.6 µM [rising, single point]
Cc1ccc(OCCNC(=O)c2cccc(Oc3ccc(C(F)(F)F)cc3[N+](=O)[O-])c2)cc1	2.82 µM [rising, single point]	2.51 µM [rising, full curve]
Cc1cc(C(=O)N2CCN(c3cccc(C)c3C)CC2)c2c(C)nn(-c3ccccc3)c2n1	–	20 µM [rising, partial curve, poor fit]
COC(=O)c1cccc(S(=O)(=O)N2CCC(c3nc4ccccc4o3)CC2)c1	–	15.8 µM [rising, single point]
Cc1nc2ccccn2c1C(=O)N/N=C/c1ccc([N+](=O)[O-])o1	28.2 µM [falling, single point]	–

3 successive entries out of the list so far, for reference:
Compound	AC50 [1]	AC50 [2]
Cc1ccc(-n2ncc(C(=O)NCCN3CCCC3)c2C2CCN(C(=O)OC(C)(C)C)CC2)cc1C	35.5 µM [falling, single point]	–
CCOC(=O)c1c(CSC(=N)N)n(-c2ccc(Br)cc2)c2cc(Br)c(OC(C)=O)cc12	22.4 µM [falling, single point]	22.4 µM [falling, partial curve, poor fit]
CCn1cc(C(=O)O)c(=O)c2cc(F)c(N/N=C/c3ccccc3)cc21	–	12.6 µM [rising, partial curve]
